Test results: PubChem BioAssay AID540335 (Broad Institute, 2011)
The whole screen tested about 1,300 compounds, of which about 270 (21%) were called active.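 Rule for the calls: active = dose-dependent rise or fall in viability, either side of zero, with half-maximal concentration at or below a set limit; inconclusive = flat curve at 30 to 70% viability loss, or poor fit; inactive = flat within 30% either way, or potency beyond limit.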 This is one part of the list. Results with a measured potency or affinity are listed apart.

Test: A375 melanoma cell viability reduction, dose response, counter-screen for MITF modulator project, cherry-pick samples, set 2 (AID 540335);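 note: A375 human melanoma cells which do not depend on MITF; 0% = median of neutral control wells and 100% = double that signal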
Settings: CellTiter-Glo ATP luminescence, 24 h; at 35 µM (top of the series)

Question: Which activity change, negative = decreased viability does the source give for `COc1ccc(Nc2oc(-c3ccc(OC)cc3)nc2C#N)cc1` here?
Answer: inactive: 5.14%

Question: With `CCSc1nnc(NC(=O)C2CCCCC2)s1` as the compound, how does the activity change, negative = decreased viability read?
Answer: inactive: -2.19%

Question: Which activity change, negative = decreased viability does the source give for `CC1CCN(CC(CS(=O)(=O)c2ccc([N+](=O)[O-])cc2)N2CCC(C)CC2)CC1` (centres undefined) here?
Answer: inactive: 5.07%

Question: Which activity change, negative = decreased viability does the source give for `CSc1nc(N)n2nc(-c3ccccc3)cc2n1` here?
Answer: inactive: -17%

Question: With `CCNC1=C(Cl)C(=O)c2ccccc2C1=O` as the compound, how does the activity change, negative = decreased viability read?
Answer: inactive: -23.1%

Question: Which activity change, negative = decreased viability does the source give for `Cc1scc(C(=O)N/N=C/c2ccc([N+](=O)[O-])o2)c1C` here?
Answer: inactive: -10.2%

Question: Which activity change, negative = decreased viability does the source give for `CC1=NNC(=O)/C1=C\c1cn(-c2ccccc2)nc1-c1ccc(F)cc1` here?
Answer: inactive: -11.5%

Question: Which activity change, negative = decreased viability does the source give for `Nc1ccc(-c2nc3ccc(C(=O)O)cc3s2)cc1` here?
Answer: inactive: -8.8%

Question: With `CS(=O)(=O)c1nc(-c2ccc(F)cc2)cc(C(F)(F)F)n1` as the compound, how does the activity change, negative = decreased viability read?
Answer: inactive: 38.8%

Question: With `CCOC(=O)C1CCCN(C(=O)C2CCN(S(=O)(=O)CC)CC2)C1` (centres undefined) as the compound, how does the activity change, negative = decreased viability read?
Answer: inactive: 3.54%

Question: Which activity change, negative = decreased viability does the source give for `C=CCOc1ccc(/C=C2\SC(=S)N(CCC(=O)O)C2=O)cc1` here?
Answer: inactive: -6.85%

Question: For `Cc1nc(Sc2nnnn2C)c2c3c(sc2n1)CCC3`, which activity change, negative = decreased viability is on record?
Answer: inactive: 6.44%

Question: With `CN(C)c1ccc(NC(=S)c2ccccn2)cc1` as the compound, how does the activity change, negative = decreased viability read?
Answer: inactive: -38.5%

Question: With `O=C(CC(=O)c1ccccc1)Nc1ccccn1` as the compound, how does the activity change, negative = decreased viability read?
Answer: inactive: 3.43%

Question: Which activity change, negative = decreased viability does the source give for `C=CCC(Nc1ccccc1)C12C=CC(O1)C(C(=O)OC)=C2C(=O)OC` (centres undefined) here?
Answer: inactive: 9.9%

Question: With `O=C1Nc2ccc(Br)cc2/C1=C/C(=O)c1ccc2c(c1)OCO2` as the compound, how does the activity change, negative = decreased viability read?
Answer: inactive: 20.9%

Question: With `CC(C)(C)c1ccc(/C=N/Nc2ccc(C(=O)O)cc2)cc1` as the compound, how does the activity change, negative = decreased viability read?
Answer: inactive: 6.22%

Question: With `CCN(CC)CCNC(=O)c1ccc(NC(=O)c2cn(-c3ccccc3)nc2-c2cccs2)cc1` as the compound, how does the activity change, negative = decreased viability read?
Answer: inactive: -38.3%

Question: For `O=C(CCCc1ccccc1)N1CCN(C2CCCCC2)CC1`, which activity change, negative = decreased viability is on record?
Answer: inactive: 1.04%

Question: For `O=C(COC(=O)c1ccc[nH]c1=O)Nc1ccc(N2CCCCC2)cc1`, which activity change, negative = decreased viability is on record?
Answer: inactive: 5.85%

Question: For `COc1ccc(NC(=O)c2cc(-c3ccccc3Cl)on2)cc1`, which activity change, negative = decreased viability is on record?
Answer: inactive: 3.51%

Question: For `COCCCn1[nH]c2c3c(ccc2c1=O)C(=O)c1ccccc1C3=O`, which activity change, negative = decreased viability is on record?
Answer: inactive: -9.87%

Question: Which activity change, negative = decreased viability does the source give for `Cc1ccc2[nH]c(=O)c(CN(CCCN(C)C)C(=O)Nc3cccc(Cl)c3)cc2c1` here?
Answer: inactive: -48%

Question: For `Cc1ccc(NC(=O)CN(C)C(=O)Cn2ncc(Cl)c(Cl)c2=O)cc1`, which activity change, negative = decreased viability is on record?
Answer: inactive: 69.3%

Question: Which activity change, negative = decreased viability does the source give for `COc1ccccc1OCCN1CSC(=S)N(C)C1` here?
Answer: inactive: 6.44%

Question: Which activity change, negative = decreased viability does the source give for `CCOC(=O)N1CCC(NC(=O)C2CCCN(Cc3nc(-c4cccc(C)c4)oc3C)C2)CC1` (centres undefined) here?
Answer: inactive: -3.74%

Question: With `CCN(CC)CCNC(=O)c1ccc(NC(=O)c2cccc(S(=O)(=O)N3c4ccccc4CC3C)c2)cc1` (centres undefined) as the compound, how does the activity change, negative = decreased viability read?
Answer: inactive: -12.4%

Question: Which activity change, negative = decreased viability does the source give for `c1ccc(CSc2nnc(-c3ccco3)n2Cc2ccco2)cc1` here?
Answer: inactive: 6.17%

Question: Which activity change, negative = decreased viability does the source give for `COc1cc(OC)cc(C(=O)N[C@H](C(=O)Nc2nc3ccccc3[nH]2)C(C)C)c1` here?
Answer: inactive: 9.07%

Question: Which activity change, negative = decreased viability does the source give for `Cc1ccc2sc(N(CCCN(C)C)C(=O)c3ccc(S(=O)(=O)N(C)C4CCCCC4)cc3)nc2c1C` here?
Answer: inactive: -39.9%

Question: With `CCn1c(C)cc(C(=O)CN2C(=O)c3ccccc3S2(=O)=O)c1C` as the compound, how does the activity change, negative = decreased viability read?
Answer: inactive: 2.06%

Question: For `O=[N+]([O-])c1ccc(Sc2cc[n+]([O-])c3ccccc23)c([N+](=O)[O-])c1`, which activity change, negative = decreased viability is on record?
Answer: inactive: -2.51%

Question: Which activity change, negative = decreased viability does the source give for `CCOc1ccc(-c2noc(CCC(=O)O)n2)cc1` here?
Answer: inactive: 5.81%

Question: Which activity change, negative = decreased viability does the source give for `Cc1cccc(NC(=O)Cc2ccc(Br)cc2)n1` here?
Answer: inactive: 11.2%

Question: Which activity change, negative = decreased viability does the source give for `C=C1CCC[C@]2(C)C[C@H]3OC(=O)C(CN4CCCCC4CO)[C@H]3CC12` (some centres undefined) here?
Answer: inactive: -23.8%

Question: Which activity change, negative = decreased viability does the source give for `COc1ccc2nc(C)cc(SCC(=O)N/N=C/c3ccc(O)cc3O)c2c1` here?
Answer: inactive: -29.4%

Question: For `COc1cccc(NC(=O)Nc2cccc(C(=O)O)c2)c1`, which activity change, negative = decreased viability is on record?
Answer: inactive: 1.68%

Question: Which activity change, negative = decreased viability does the source give for `Cc1ccc(C2CC(C(F)(F)F)n3nc(C(=O)NCc4c(C)nn(C)c4C)c(Cl)c3N2)cc1` (centres undefined) here?
Answer: inactive: -20.6%

Question: With `Cc1csc(N/N=C/c2ccc([N+](=O)[O-])cc2)n1` as the compound, how does the activity change, negative = decreased viability read?
Answer: inactive: 5.61%

Question: For `Oc1ccccc1/C=N/Nc1cccc2cccnc12`, which activity change, negative = decreased viability is on record?
Answer: inactive: -36.4%

Question: With `O=C(Cn1cnc2c(oc3ccccc32)c1=O)c1ccccc1` as the compound, how does the activity change, negative = decreased viability read?
Answer: inactive: 0.836%

Question: For `Oc1ccc(-c2nnc(SCC3CCCCC3)o2)cc1`, which activity change, negative = decreased viability is on record?
Answer: inactive: 3.91%

Question: For `O=[N+]([O-])c1ccc(-n2nnnc2-c2ccccc2)c([N+](=O)[O-])c1`, which activity change, negative = decreased viability is on record?
Answer: inactive: 2.45%

Question: With `Cc1[nH]c2ccccc2c1C(=O)CCl` as the compound, how does the activity change, negative = decreased viability read?
Answer: inactive: -3.71%

Question: With `Fc1cccc(Cl)c1CSc1nnc(-c2ccncc2)o1` as the compound, how does the activity change, negative = decreased viability read?
Answer: inactive: 4.01%

Question: Which activity change, negative = decreased viability does the source give for `COC(=O)c1ccc(COc2ccc(C)cc2[N+](=O)[O-])o1` here?
Answer: inactive: 2.9%

Question: For `NC(=O)c1cc([N+](=O)[O-])ccc1NCc1ccc(N)cc1`, which activity change, negative = decreased viability is on record?
Answer: inactive: -10.9%

Question: For `O=C1NC2c3c(I)sc(I)c3C(=O)C2O1` (centres undefined), which activity change, negative = decreased viability is on record?
Answer: inactive: -17.4%

Question: With `Cc1cc(C)n(-c2ccc(C(=O)Nc3ccc(C)c(S(=O)(=O)N4CCOCC4)c3)cc2)n1` as the compound, how does the activity change, negative = decreased viability read?
Answer: inactive: -12.6%
